Laboratory results published in patent US8367659B2, “Oxazinyl isoflavonoid compounds, medicaments and use” (Marshall Edwards, Inc., priority 2007, dated 2013).
For at least one compound, name, drawing or mass did not settle the structure.

Amino acid sequences for entries named in this document (tags omitted). Residues count along the entry.
UniProt P37231, 238-503 limits assumed: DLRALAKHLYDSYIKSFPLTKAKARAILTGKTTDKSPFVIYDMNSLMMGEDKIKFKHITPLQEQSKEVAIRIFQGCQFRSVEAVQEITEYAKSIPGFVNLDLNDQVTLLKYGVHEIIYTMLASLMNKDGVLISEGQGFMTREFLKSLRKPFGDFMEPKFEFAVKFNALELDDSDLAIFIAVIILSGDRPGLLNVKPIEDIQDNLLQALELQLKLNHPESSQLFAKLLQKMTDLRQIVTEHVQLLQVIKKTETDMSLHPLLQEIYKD

Experiments:
B cells = assay: B cell proliferation (LPS-stimulated mouse splenocytes, MTT); type: cell-based, Skh-1:HR 1 (hairless) mice; details: 10 μM, 3 days
Experimental: (§1) Male Skh-1:HR 1 (hairless) mice, approximately six weeks old were killed by cervical dislocation. Single cell suspensions were made from the spleen and erythrocytes were lysed in buffer (0.14 M NH4Cl, 17 mM Tris, pH 7.2). The remaining splenocytes were cultured in RPMI-1640 (Gibco) supplemented with 10% (v:v) FBS, 200 mM L-glutamine, penicillin/streptomycin and […] 2-mercaptoethanol. Splenocytes were added to quadruplicate wells containing either concanavalin A (ConA, Sigma-Aldrich—0.4 μg/well), LPS (Sigma-Aldrich—1 μg/well) or no mitogen, as well 10 μM of test compound in DMSO. Samples were analysed after 3 days incubation at 37° C. in 5% CO2 in air. Methylthiazoletetrazolium (MTT) is bioreduced by viable cells into a coloured formazan product that is soluble in DMSO. Thus the quantity of formazan product is directly proportional to the number of living cells in culture, and can be measured using a spectrophotometer at 570 nm. MTT was added to each well, incubated for a further 4 hrs and then colour developed with 0.04 N HCl in isopropanol. Culture supernatants were stored after collection at −80° C. and analysed by ELISA (BD Biosciences) for IFN-γ (a Th-1 cytokine) and for T cells alone, IL-6 (a Th-2 cytokine).

[1] = target: T1, GAL4-PPARγ fusion protein (Homo sapiens, UniProt P37231); assay: PPARγ activity in transfected HEK293 cells (beta-lactamase reporter); type: cell-based; details: FIG. 13: 1 μM
T1 construct: host or cells: HEK293 (human embryonic kidney), stably transfected
Experimental: Human HEK293 cells, stably transfected with the PPARγ ligand binding domain fused with the DNA binding domain of the GAL4 protein (GAL4-PPARγ fusion protein), produce beta-lactamase when incubated with PPARγ ligands. Transfected human kidney embryonic cells (Invitrogen Inc., Carlsbad, Calif.) were seeded onto matrigel in 96-well plates and allowed to attach overnight. The following day, vehicle alone (DMSO) or test compound at 1, 5 and 10 μM was added at varying concentrations to cells and incubated for 16-18 hours. Cells were then loaded with a FRET-based fluorescent substrate to assess beta-lactamase activity. Cells were protected from light, and incubated at room temperature for 2 h. Plates were read on a fluorescence plate reader with an excitation wavelength of 409 nm and emission wavelengths of 460 nm and 530 nm. Results were expressed as a ratio of these two wavelengths after the background (cell-free control wells) had been subtracted. PPARγ activity was thus determined by measuring beta-lactamase activity as assessed by a fluorescent product to substrate ratio.

[2] = test system: caspase-3/7 activity in A7r5 rat aortic smooth muscle cells; assay: Caspase-3/7 activity (apoptosis) in A7r5 rat aortic smooth muscle cells; type: cell-based; details: 10, 50 and 100 μM; FIG. 14
Description: Activation of the caspase cascade is an integral event in the apoptotic pathway. Caspase-3 is one of the important “executioner” caspase enzymes, triggering the cleavage of numerous proteins that lead to the ordered breakdown of cells. The detection of caspase-3 activation is frequently used as a positive marker for apoptosis. A homogeneous luminescent caspase-3/7 assay, the Caspase-Glo™ 3/7 Assay (Promega Corp.) was used to provide an extremely sensitive measure of caspase activation. VSMC were incubated with different concentrations (0 [vehicle alone], 10, 50 and 100 μM) of test compounds. The assay used a proluminescent substrate containing the DEVD sequence recognized by caspase-3 and -7. The caspase-Glo™ 3/7 Reagent produced luminescence that is directly proportional to the amount of caspase-3/7 activity. The luminescence is linear over four orders of magnitude of caspase concentration and over a broad range of cell densities.

[3] = test system: NFκB-promoter activity in TNFa-stimulated THP-1 monocyte/macrophages; assay: NFκB promoter activity in TNFα-stimulated THP-1 cells (beta-lactamase reporter); type: cell-based, human; details: 30 μM; FIG. 19
Experimental: The assay utilizes a genetically modified THP-1 cell line and GeneBLAzer® beta-lactamase technology (Invitrogen Corp). The human THP-1 monocyte/macrophages contain a stably-transfected beta-lactamase reporter gene under control of the NFκB response element They respond to stimulation with TNF-a, which leads to activation of the NFκB signaling pathway. Co-incubation of cells with TNF-a and test material allows quantitative determination of the ability of test material to inhibit TNFa-stimulated beta-lactamase production. Inflammatory index is calculated as the ratio of beta-lactamase product to beta-lactamase substrate. In brief, genetically modified THP-1 cells were seeded into wells of a 96-well plate (50×10^3 cells/well) in the presence of RPMI 1640 medium (70 μl). TNFα was added to each well (10 μl) to give a final concentration of 7.5 ng/ml. Dialyzed bovine serum was added (10 μl). Compounds dissolved in DMSO (10 μL) were then added (5 wells for each compound). Each plate contained a no-cell control (4 wells), a no-serum control (4 wells) and two serum controls. […] Excitation of this substrate at 409 nm leads to efficient FRET between the coumarin and fluorescein moieties, resulting in a green fluorescence detectable at 530 nm. […] Thus, activity of beta-lactamase (a marker of NFκB-promoter activity) is measured as a product to substrate ratio (blue/green fluorescence ratio: 460 nm/530 nm). […]

IFN-γ = IFN-γ synthesis by mouse splenocytes (ELISA); type: cell-based, Skh-1:HR 1 (hairless) mice; details: 10 μM; 3 days
Experimental: as §1

Oc1ccc(C2=Cc3cc4c(cc3OC2)OCN(Cc2ccccc2)C4)cc1 [Compound 1, 4-(3-Benzyl-2,3,4,8-tetrahydrochromeno[6,7-e][1,3]oxazin-7-yl)phenol]
effect on B cells (B cells): markedly and significantly immunosuppressive | PPARγ activation, increase in beta-lactamase activity over media only control [1]: PPARγ agonist activity | induction of caspase-3/7 activity, apoptosis [2]: consistently induced apoptosis | NFκB inhibition [3]: inhibited NFκB | synthesis of INF-γ into the supernatant (IFN-γ): concomitant reduction
